Results as given in patent US20050048528A1.
These are yes or no findings as the source states them, for the method shown. In cells and extracts the contact can be indirect. Some results given as binding are weak or reduced against the parent protein; the word gives no strength. Where a sequence is shown, tags or fusion partners need not be part of it.

By UniProt entry, the sequences of proteins in these tests, tags left out. Residues count along the entry.
UniProt Q99708, residues 45-897: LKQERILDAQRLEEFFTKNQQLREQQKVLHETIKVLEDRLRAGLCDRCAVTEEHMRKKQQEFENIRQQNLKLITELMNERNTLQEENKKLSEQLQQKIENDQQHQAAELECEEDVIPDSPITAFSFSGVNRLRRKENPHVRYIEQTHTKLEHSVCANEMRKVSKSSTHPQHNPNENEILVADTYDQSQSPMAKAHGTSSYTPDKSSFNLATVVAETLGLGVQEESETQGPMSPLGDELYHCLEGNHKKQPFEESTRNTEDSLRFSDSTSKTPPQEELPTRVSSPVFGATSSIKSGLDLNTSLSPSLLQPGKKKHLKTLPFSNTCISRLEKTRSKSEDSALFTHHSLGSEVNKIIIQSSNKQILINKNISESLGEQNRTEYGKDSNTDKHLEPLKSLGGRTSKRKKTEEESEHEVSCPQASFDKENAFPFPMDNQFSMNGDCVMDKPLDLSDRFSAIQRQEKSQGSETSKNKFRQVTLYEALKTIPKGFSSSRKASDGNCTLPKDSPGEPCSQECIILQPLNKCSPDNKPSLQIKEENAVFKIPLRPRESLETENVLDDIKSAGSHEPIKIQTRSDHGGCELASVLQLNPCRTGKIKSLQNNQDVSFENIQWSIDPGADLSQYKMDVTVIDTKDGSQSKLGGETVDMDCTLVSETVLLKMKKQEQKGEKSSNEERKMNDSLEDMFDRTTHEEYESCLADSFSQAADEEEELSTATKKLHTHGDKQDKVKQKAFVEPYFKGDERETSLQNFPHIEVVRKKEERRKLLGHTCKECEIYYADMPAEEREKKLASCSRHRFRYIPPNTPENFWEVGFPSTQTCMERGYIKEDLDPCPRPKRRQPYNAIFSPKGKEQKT
UniProt P38398, residues 1528-1863: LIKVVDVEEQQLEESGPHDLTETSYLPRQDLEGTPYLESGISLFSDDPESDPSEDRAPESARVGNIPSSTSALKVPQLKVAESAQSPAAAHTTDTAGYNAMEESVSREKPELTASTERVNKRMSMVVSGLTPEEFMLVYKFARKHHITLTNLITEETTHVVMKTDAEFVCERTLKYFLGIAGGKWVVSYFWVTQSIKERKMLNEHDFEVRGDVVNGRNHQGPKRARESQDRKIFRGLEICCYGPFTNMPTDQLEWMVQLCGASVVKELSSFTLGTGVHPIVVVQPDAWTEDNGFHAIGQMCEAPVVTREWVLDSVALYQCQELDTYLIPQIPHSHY

Experiments:
[1] = biological target: T1, Flag-tagged LMO4 (full-length) (UniProt P61968); assay: co-immunoprecipitation (anti-Flag) / anti-HA western blot, transfected 293T cells
T1 sequence (looked up): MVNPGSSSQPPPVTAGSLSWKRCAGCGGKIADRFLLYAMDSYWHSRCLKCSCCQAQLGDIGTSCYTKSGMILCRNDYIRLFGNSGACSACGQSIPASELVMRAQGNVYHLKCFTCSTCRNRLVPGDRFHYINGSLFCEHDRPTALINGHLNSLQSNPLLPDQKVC

[2] = biological target: T1, Flag-tagged LMO4 (full-length); assay: co-immunoprecipitation (anti-Flag) / anti-HA western blot, transfected 293T cells (FIG. 10A)

Row | binding [1] | binding [2] | Substance
1 | binds |  | CtIP (residues 45-897), human, from pCMV-HA-ns311 (from UniProt Q99708 45-897)
2 | binds | binds | HA-tagged BRCA1 SZ fragment (residues 1528-1863) (from UniProt P38398 1528-1863)
